# Experimental data as given in patent US20130303562A1, “CHEMICAL AND RNAI SUPPRESSORS OF NEUROTOXICITY IN HUNTINGTON'S DISEASE” (priority 2010, published 2013).
# For at least one compound, name, drawing or mass did not settle the structure.
# System: Htt138Q aggregate formation
# Assay: Htt-Q138 aggregation-inhibition screening of small molecules in Drosophila primary neural cultures (automated microscopy)
# Format: cell-based
# Procedure: Primary Cell Culture. Elav^c155-GAL4 virgins were collected en-masse and crossed to either UAS-Htt-Q138-mRFP^1, UAS-mCD8-GFP or UAS-HttQ15-mRFP^1, UAS-mCD8-GFP males to generate embryos for primary culture preparation. Neuroblasts were isolated as described (Sepp et al., 2008).
# Compound screening: Primary cultures were re-suspended directly in Shields and Sang M3 media (Sigma) supplemented with 10 U/mL penicillin, 10 μg/mL streptomycin, 200 ng/mL insulin, and 5% fetal bovine serum. […]
# Digital Image Analysis of High Content Screening Data Sets: Neuronal morphological analysis and Htt aggregate quantification for automated microscopy images was performed as previously described (Schulte et al., Wu et al.). In brief, Htt-Q138 aggregates were quantified as the total number of pixels/image with an intensity higher than an empirically set threshold. […] To quantify neuronal morphologies, cell body clusters (neuromeres) and neurites were extracted from images using our custom algorithms (Wu et al.). […] Neurite segment lengths were similarly clustered into three groups (short, medium, and long) using the K-means method and then quantified. […] Mean neuromere area and neurite length for each image were also calculated to give a total of eight morphological metrics for image morphology quantification. […]
smiles,measurement,value
CO[C@H]1C[C@@H]2CC[C@@H](C)[C@@](O)(O2)C(=O)C(=O)N2CCCC[C@H]2C(=O)O[C@H]([C@H](C)C[C@@H]2CC[C@@H](O)[C@H](OC)C2)CC(=O)[C@H](C)/C=C(\C)[C@@H](O)[C@@H](OC)C(=O)[C@H](C)C[C@H](C)/C=C/C=C/C=C/1C [Rapamycin],Htt-Q138 aggregation (effect in words),reduced Htt-Q138 aggregation
